Measurements from the supplement of paper PMC10849652.
This is one part of the list.

Protein sequences, listed by entry. Tags and fused reporters are not part of them. Lines headed by an entry give the natural chain unless they say otherwise; changes in a name come on top.
UniProt Q8WU76: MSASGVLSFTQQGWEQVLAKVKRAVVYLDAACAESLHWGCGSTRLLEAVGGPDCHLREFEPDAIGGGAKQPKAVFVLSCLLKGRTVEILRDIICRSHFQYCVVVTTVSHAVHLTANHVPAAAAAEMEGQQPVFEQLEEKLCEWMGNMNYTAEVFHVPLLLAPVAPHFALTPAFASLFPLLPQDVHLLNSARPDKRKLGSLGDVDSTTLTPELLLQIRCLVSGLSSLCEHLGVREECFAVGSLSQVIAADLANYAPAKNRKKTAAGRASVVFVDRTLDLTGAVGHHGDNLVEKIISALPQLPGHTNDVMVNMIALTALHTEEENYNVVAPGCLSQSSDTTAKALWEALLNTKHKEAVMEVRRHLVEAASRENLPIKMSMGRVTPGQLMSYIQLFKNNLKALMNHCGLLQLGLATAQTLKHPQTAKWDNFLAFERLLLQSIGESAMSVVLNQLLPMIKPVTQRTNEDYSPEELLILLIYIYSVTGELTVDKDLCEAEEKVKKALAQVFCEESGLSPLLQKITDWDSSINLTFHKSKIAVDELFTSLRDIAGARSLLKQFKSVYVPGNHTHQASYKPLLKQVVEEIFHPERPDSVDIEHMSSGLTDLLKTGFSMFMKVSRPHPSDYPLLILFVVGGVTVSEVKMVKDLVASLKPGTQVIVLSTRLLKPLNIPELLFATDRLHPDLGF
UniProt O00767: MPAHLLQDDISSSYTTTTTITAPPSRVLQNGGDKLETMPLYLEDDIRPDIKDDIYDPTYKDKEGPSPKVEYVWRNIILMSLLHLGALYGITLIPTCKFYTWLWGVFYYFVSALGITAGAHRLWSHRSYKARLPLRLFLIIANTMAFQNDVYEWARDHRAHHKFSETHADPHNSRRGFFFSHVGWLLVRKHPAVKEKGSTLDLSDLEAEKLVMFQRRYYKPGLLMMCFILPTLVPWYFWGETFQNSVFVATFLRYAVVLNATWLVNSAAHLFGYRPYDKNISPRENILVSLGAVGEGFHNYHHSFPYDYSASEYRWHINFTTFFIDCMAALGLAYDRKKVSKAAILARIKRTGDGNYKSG
UniProt O14828: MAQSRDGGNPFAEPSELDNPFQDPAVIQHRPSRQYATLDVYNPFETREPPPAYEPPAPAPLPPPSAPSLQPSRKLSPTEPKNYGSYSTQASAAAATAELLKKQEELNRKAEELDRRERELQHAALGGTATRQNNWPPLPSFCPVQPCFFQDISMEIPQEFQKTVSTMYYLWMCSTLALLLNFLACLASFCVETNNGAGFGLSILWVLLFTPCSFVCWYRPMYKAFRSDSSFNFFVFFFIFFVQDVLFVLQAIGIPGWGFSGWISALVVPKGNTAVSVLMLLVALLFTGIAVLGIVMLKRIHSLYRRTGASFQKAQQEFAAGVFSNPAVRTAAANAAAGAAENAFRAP
UniProt Q96ER3: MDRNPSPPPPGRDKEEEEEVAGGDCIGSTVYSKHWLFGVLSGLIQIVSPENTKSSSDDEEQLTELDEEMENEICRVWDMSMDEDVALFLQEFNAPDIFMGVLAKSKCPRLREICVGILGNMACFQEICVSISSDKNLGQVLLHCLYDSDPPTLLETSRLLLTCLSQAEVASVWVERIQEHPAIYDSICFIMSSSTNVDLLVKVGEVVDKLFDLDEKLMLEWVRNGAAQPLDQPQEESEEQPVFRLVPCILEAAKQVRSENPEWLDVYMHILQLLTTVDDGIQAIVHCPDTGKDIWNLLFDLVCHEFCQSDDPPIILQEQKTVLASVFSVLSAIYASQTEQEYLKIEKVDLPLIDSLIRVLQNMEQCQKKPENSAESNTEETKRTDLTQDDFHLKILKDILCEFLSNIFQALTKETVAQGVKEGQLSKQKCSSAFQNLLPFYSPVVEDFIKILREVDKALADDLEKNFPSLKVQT
UniProt Q9NR31: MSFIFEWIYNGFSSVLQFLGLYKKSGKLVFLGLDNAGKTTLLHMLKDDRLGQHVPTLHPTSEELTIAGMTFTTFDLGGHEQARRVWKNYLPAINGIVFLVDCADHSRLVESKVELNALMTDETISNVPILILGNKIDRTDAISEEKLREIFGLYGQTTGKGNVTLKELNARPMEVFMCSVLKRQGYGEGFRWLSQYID
UniProt Q9Y6B6: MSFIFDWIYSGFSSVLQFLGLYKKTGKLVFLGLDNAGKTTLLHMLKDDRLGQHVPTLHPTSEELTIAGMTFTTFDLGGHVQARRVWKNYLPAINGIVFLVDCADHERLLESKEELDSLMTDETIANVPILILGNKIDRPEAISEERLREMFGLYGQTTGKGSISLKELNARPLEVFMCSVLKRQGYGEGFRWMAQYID
UniProt Q6IQ49: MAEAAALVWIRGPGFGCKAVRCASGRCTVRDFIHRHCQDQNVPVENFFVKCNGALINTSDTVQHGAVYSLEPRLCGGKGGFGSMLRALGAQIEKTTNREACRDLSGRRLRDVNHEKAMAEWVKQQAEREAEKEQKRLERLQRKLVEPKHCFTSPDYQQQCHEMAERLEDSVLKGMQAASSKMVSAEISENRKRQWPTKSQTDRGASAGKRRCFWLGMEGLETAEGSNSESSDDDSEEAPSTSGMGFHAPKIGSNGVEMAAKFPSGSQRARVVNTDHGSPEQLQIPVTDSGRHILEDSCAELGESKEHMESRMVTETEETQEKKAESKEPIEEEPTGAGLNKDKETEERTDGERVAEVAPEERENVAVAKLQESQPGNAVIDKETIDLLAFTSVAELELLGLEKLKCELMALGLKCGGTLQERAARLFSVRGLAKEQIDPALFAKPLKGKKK
UniProt O94855: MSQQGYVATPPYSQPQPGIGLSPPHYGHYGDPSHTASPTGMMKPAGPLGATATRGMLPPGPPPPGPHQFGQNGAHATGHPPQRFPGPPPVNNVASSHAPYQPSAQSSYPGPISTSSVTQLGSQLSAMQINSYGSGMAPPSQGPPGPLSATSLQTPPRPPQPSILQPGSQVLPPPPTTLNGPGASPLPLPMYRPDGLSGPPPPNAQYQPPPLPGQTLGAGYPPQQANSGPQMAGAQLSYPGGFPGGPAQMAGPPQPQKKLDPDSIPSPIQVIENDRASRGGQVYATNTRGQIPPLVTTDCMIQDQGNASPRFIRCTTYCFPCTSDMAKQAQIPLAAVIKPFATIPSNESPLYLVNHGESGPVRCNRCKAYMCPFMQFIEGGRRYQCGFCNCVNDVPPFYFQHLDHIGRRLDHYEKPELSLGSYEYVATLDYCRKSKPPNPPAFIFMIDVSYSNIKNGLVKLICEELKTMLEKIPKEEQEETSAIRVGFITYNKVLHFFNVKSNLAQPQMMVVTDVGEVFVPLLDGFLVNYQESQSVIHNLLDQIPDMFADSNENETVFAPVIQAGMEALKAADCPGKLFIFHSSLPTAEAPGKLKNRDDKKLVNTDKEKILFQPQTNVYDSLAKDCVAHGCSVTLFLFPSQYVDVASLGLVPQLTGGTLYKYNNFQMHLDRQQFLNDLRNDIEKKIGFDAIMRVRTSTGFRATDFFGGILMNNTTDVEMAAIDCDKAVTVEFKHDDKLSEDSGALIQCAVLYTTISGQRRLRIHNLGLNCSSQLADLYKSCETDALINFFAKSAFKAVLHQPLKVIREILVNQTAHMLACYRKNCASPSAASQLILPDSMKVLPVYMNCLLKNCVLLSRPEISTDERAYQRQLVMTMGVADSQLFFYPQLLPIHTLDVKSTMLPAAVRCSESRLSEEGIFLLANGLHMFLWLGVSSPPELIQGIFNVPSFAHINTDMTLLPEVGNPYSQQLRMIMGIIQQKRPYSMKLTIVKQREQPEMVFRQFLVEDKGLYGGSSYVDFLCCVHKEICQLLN
UniProt Q6NW29: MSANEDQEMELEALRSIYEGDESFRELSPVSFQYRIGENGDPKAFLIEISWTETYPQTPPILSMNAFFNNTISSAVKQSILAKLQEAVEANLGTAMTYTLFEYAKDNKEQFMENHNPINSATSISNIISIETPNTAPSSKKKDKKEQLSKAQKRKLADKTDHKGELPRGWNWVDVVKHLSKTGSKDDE
UniProt Q9Y230, whole entry, looked up: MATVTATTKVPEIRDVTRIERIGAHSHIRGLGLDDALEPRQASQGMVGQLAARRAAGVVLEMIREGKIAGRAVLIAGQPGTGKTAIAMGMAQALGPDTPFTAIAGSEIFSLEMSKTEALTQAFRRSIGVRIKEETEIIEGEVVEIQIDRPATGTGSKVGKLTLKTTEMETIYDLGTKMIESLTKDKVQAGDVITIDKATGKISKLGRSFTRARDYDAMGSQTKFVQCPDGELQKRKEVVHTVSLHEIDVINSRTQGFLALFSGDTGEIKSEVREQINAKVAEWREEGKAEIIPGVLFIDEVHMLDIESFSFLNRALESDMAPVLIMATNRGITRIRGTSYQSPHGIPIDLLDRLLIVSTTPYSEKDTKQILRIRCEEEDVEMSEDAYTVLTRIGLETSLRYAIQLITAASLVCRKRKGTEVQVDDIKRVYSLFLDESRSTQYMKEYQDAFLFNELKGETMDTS
UniProt Q99643: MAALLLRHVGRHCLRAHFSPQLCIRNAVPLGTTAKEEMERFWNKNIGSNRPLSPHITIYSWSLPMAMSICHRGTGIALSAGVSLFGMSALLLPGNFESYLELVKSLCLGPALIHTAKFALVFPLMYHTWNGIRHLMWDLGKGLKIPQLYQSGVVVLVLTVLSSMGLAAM
UniProt Q15436: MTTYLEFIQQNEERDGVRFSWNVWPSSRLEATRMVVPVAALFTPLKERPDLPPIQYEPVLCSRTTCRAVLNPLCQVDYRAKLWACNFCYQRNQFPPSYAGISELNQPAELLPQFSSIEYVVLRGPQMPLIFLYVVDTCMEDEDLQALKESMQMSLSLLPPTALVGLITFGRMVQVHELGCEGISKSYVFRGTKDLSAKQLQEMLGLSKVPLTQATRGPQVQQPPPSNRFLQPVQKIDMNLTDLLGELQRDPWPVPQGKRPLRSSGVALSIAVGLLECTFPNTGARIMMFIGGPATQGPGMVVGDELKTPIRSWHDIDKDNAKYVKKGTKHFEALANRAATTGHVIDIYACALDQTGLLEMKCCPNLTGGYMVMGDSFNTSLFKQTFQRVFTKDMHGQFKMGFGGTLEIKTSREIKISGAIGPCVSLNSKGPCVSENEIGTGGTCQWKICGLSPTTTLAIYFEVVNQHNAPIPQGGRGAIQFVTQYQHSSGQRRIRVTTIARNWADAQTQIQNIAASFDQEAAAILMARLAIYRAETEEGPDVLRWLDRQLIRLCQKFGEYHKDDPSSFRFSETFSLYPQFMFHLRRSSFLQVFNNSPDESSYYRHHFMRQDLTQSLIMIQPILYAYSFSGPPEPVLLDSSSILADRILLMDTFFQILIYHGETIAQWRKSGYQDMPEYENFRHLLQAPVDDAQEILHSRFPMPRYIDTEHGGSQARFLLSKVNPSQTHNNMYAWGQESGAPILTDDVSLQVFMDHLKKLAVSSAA
UniProt Q14151: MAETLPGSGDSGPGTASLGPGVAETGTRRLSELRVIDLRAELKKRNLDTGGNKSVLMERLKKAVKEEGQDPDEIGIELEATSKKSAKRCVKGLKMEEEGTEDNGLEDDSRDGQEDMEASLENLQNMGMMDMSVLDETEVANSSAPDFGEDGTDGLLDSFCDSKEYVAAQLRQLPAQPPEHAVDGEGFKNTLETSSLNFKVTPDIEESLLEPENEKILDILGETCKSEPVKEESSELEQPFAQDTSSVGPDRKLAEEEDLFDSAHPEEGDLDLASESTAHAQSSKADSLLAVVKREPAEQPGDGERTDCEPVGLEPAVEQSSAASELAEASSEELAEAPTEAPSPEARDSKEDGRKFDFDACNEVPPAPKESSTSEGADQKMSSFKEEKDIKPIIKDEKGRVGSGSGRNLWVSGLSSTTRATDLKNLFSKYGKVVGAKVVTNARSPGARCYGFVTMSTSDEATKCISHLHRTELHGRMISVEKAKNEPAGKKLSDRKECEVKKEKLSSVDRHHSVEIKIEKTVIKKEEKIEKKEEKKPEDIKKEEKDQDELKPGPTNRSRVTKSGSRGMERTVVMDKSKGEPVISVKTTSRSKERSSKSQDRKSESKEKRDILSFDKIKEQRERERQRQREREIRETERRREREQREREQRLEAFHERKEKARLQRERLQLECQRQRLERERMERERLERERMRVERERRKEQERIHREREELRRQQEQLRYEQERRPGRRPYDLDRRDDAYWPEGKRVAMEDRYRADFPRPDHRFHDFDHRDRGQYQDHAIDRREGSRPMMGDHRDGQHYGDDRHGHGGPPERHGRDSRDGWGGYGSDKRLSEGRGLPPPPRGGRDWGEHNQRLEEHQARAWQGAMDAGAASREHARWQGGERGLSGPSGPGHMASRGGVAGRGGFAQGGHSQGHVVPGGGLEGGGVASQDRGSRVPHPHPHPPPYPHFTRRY

Experiments:
Experiment in all cases: log2 fold change, soluble protein after heating vs DMSO (PISA); higher = thermal stabilisation; K562 cells, 10 uM, 30 min; active = over 0.2 and 3.5 SD of the protein, either way, in both replicates (recomputed)
[1] = compound: COC1=CC=C(C=C1)CN2C=CC3=C2C=C(C=C3)C(=O)NO
Procedure, shortened: (§1)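 Quantification of soluble protein used TMTpro 16plex LC-MS/MS, with channel sums equalised. Samples were the supernatant after 21,000xg for 90 min of pooled aliquots from K562 cells (2×10^6 cells/mL) treated with 10 μM compound for 30 min, heated for 3 min over 48°C-58°C, and extracted in PBS with 0.5% NP-40 at 4°C. Values, from duplicates, describe thermal stability against control samples on a log2 fold-change scale.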

filanesib = compound: CON(C)C(=O)N1N=C(c2cc(F)ccc2F)S[C@@]1(CCCN)c1ccccc1 [filanesib]
Procedure, shortened: as §1

zotarolimus = compound: CO[C@H]1C[C@@H]2CC[C@@H](C)[C@@](O)(O2)C(=O)C(=O)N2CCCC[C@H]2C(=O)O[C@H]([C@H](C)C[C@@H]2CC[C@H](n3cnnn3)[C@H](OC)C2)CC(=O)[C@H](C)/C=C(\C)[C@@H](O)[C@@H](OC)C(=O)[C@H](C)C[C@H](C)/C=C/C=C/C=C/1C [zotarolimus]
Procedure, shortened: as §1

idasanutlin = compound: COc1cc(C(=O)O)ccc1NC(=O)[C@@H]1N[C@@H](CC(C)(C)C)[C@](C#N)(c2ccc(Cl)cc2F)[C@H]1c1cccc(Cl)c1F [idasanutlin]
Procedure, shortened: as §1

alisertib = compound: COc1cc(Nc2ncc3c(n2)-c2ccc(Cl)cc2C(c2c(F)cccc2OC)=NC3)ccc1C(=O)O [alisertib]
Procedure, shortened: as §1

[2] = compound: COc1cc2nc(-c3cc(F)ccc3O)nc(N[C@@H]3CNC[C@H]3C(C)(C)O)c2cc1OC
Procedure, shortened: as §1

gefitinib = compound: COc1cc2ncnc(Nc3ccc(F)c(Cl)c3)c2cc1OCCCN1CCOCC1 [gefitinib]
Procedure, shortened: as §1

[3] = compound: COc1cccc2cc(-c3nc([C@H]4CC[C@H](C(=O)O)CC4)n4ncnc(N)c34)[nH]c12
Procedure, shortened: as §1

lapatinib = compound: CS(=O)(=O)CCNCc1ccc(-c2ccc3ncnc(Nc4ccc(OCc5cccc(F)c5)c(Cl)c4)c3c2)o1 [lapatinib]
Procedure, shortened: as §1

pictilisib = compound: CS(=O)(=O)N1CCN(Cc2cc3nc(-c4cccc5[nH]ncc45)nc(N4CCOCC4)c3s2)CC1 [pictilisib]
Procedure, shortened: as §1

Measured: log2 fold change

SCARB2 (UniProt Q14108)
inactive: [1] -0.043 | filanesib -0.002 | zotarolimus -0.023 | idasanutlin -0.065 | alisertib -0.018 | [2] -0.028 | gefitinib 0.003 | [3] 0.037 | lapatinib 0.118 | pictilisib 0.036

SCFD2 (UniProt Q8WU76)
inactive: [1] -0.077 | filanesib 0.026 | zotarolimus 0.044 | idasanutlin 0.274 | alisertib -0.137 | [2] -0.039 | gefitinib -0.021 | [3] -0.064 | lapatinib 0.074 | pictilisib -0.151

SCD (UniProt O00767)
inactive: filanesib -0.074 | zotarolimus -0.024 | idasanutlin -0.001 | alisertib 0.014 | [2] -0.054 | gefitinib 0.019 | [3] 0.048 | lapatinib -0.017 | pictilisib -0.053
active: [1] -0.458

2 records picked at random from those above:
SCARB2 (UniProt Q14108)
inactive: [1] -0.043 | filanesib -0.002 | zotarolimus -0.023 | idasanutlin -0.065 | alisertib -0.018 | [2] -0.028 | gefitinib 0.003 | [3] 0.037 | lapatinib 0.118 | pictilisib 0.036

SCD (UniProt O00767)
inactive: filanesib -0.074 | zotarolimus -0.024 | idasanutlin -0.001 | alisertib 0.014 | [2] -0.054 | gefitinib 0.019 | [3] 0.048 | lapatinib -0.017 | pictilisib -0.053
active: [1] -0.458

(continued)

SCAMP3 (UniProt O14828)
inactive: [1] 0.032 | filanesib -0.053 | zotarolimus -0.089 | idasanutlin 0.033 | alisertib -0.101 | [2] -0.077 | gefitinib 0.017 | [3] -0.024 | lapatinib 0.037 | pictilisib -0.024

SAAL1 (UniProt Q96ER3)
inactive: [1] -0.179 | filanesib -0.032 | zotarolimus 0.016 | idasanutlin -0.11 | alisertib -0.067 | [2] 0.214 | gefitinib -0.055 | [3] 0.018 | lapatinib -0.002 | pictilisib -0.018

SAR1A (UniProt Q9NR31)
inactive: [1] 0.101 | filanesib -0.087 | zotarolimus -0.031 | idasanutlin -0.068 | alisertib -0.033 | [2] 0.037 | gefitinib 0.009 | [3] 0.01 | lapatinib -0.025 | pictilisib 0.016

SAR1B (UniProt Q9Y6B6)
inactive: [1] -0.035 | filanesib -0.09 | zotarolimus -0.017 | idasanutlin -0.131 | alisertib -0.03 | [2] 0.063 | gefitinib -0.008 | [3] 0.043 | lapatinib -0.041 | pictilisib 0.06

SDE2 (UniProt Q6IQ49)
inactive: [1] -0.06 | filanesib -0.025 | zotarolimus -0.032 | idasanutlin 0.009 | alisertib 0.034 | [2] 0.033 | gefitinib -0.007 | [3] 0.021 | lapatinib -0.058 | pictilisib 0.021

SEC24D isoform 2 (UniProt O94855)
inactive: [1] 0.065 | filanesib 0.035 | zotarolimus 0.017 | idasanutlin 0.003 | alisertib -0.053 | [2] 0.014 | gefitinib 0.008 | [3] 0.013 | lapatinib 0.011 | pictilisib -0.024

RWDD4 (UniProt Q6NW29)
inactive: [1] -0.028 | filanesib 0.044 | zotarolimus -0.038 | idasanutlin -0.039 | alisertib -0.158 | [2] 0.014 | gefitinib 0.052 | [3] 0 | lapatinib -0.038 | pictilisib 0.097

RUVBL2 (UniProt Q9Y230)
inactive: [1] -0.034 | filanesib -0.015 | zotarolimus -0.033 | idasanutlin -0.048 | alisertib -0.089 | [2] 0.004 | gefitinib 0.001 | [3] 0.016 | lapatinib 0.013 | pictilisib -0.005

SDHC (UniProt Q99643)
inactive: [1] 0.088 | filanesib 0.088 | zotarolimus 0.094 | idasanutlin -0.238 | alisertib 0.023 | [2] -0.107 | gefitinib 0.042 | [3] 0.04 | lapatinib -0.081 | pictilisib -0.006

SEC23A (UniProt Q15436)
inactive: [1] 0.024 | filanesib 0.013 | zotarolimus 0.025 | idasanutlin -0.026 | alisertib -0.027 | [2] 0.043 | gefitinib 0.007 | [3] 0.01 | lapatinib -0.045 | pictilisib 0.049

SAFB2 (UniProt Q14151)
inactive: [1] -0.044 | zotarolimus 0.017 | idasanutlin 0.085 | alisertib -0.045 | [2] -0.046 | gefitinib 0 | [3] -0.037 | lapatinib 0.048 | pictilisib -0.032
active: filanesib 0.409
